Results are given in words; binding and its absence hold for the method and conditions named. Binding seen in cells or lysates may run through a third protein. Some binding calls cover weakened binding; strength is not graded here.
Columns and labels:
[1] = molecular target: phosphatase and tensin homologue (PTEN) (mouse (endogenous in MEFs)) (UniProt O08586); experiment: co-IP; lysate of Txnrd1^-/- MEFs (RIPA buffer, 1 to 2 mg protein) immunoprecipitated with rabbit anti-PTEN antibody on Dynabeads sheep anti rabbit IgG, overnight at 4 °C; immunoblotted for PTEN and Trx1; three repeats
[2] = molecular target: phosphatase and tensin homologue (PTEN) (mouse (endogenous in MEFs)) (UniProt O08586); experiment: condition: only in parental Txnrd1^fl/fl MEFs (TrxR1 expressed); co-IP; lysate of parental Txnrd1^fl/fl MEFs (RIPA buffer, 1 to 2 mg protein) immunoprecipitated with rabbit anti-PTEN antibody on Dynabeads sheep anti rabbit IgG, overnight at 4 °C; immunoblotted for PTEN and Trx1; three repeats

Protein sequences, listed by entry. Tags and fused reporters are not part of them.
UniProt O08586: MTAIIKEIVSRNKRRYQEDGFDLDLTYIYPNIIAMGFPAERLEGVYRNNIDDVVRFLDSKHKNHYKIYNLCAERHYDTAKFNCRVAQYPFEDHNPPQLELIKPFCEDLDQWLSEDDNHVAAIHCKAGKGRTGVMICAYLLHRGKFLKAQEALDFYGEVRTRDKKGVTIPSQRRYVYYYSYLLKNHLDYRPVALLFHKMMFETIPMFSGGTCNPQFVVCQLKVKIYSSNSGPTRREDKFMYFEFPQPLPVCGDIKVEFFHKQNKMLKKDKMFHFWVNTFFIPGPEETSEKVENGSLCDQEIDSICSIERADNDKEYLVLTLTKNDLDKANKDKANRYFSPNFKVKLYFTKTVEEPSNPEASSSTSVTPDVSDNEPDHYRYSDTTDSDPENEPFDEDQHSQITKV

binding [1]: binds
binding [2]: no binding
B1: thioredoxin 1 (Trx1) (protein, UniProt P10639 1-105)
chain: MVKLIESKEAFQEALAAAGDKLVVVDFSATWCGPCKMIKPFFHSLCDKYSNVVFLEVDVDDCQDVAADCEVKCMPTFQFYKKGQKVGEFSGANKEKLEASITEYA

— publication PMC4921861
